Source: patent EP4094756A1 (priority 2021, dated 2022)

Assay: MTT assay (cell survival)
Settings: monkey, vero cells

Q: Which MNTC does the source give for `CC(C)=CCC[C@]1(C)[C@@H](CC=C(C)C)C[C@]2(CC=C(C)C)C(=O)C(CC=C(C)C)=C(O)[C@@]1(C(=O)C(C)C)C2=O` [Hyperforin, hyperforin, reference compound] here?
A: 2 µg/mL
